Measured values as given in patent publication US20050019808A1 (WISCONSIN ALUMNI RESEARCH FOUNDATION, published 2005).
No constants are given. Whether binding was seen depends on the method and setting. Some binding calls cover weakened binding; strength is not graded here.

By UniProt entry, the sequences of proteins in these tests, tags left out. Residues count along the entry.
UniProt Q66765, residues 1045-1194: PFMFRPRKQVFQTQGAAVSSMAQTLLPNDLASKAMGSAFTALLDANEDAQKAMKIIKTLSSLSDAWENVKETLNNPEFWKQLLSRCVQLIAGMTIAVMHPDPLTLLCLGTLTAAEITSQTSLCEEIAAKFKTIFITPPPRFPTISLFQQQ

Biological target: 2B from infected cells (encephalomyocarditis virus (EMCV-R)) (UniProt Q66765)
Experiment: SDS-PAGE and Western, self-association

With “2B from infected cells (from UniProt Q66765 1045-1194)” the binding was “binds”.
